Results from PMC8565321.
Where a chain is given by its changes, count along the chain named. These are yes or no findings as the source states them, for the method shown. In cells and extracts the contact can be indirect. Some results given as binding are weak or reduced against the parent protein; the word gives no strength. For part of these data: Tags and fused reporters may be left off the sequences shown.

Chains of the proteins cited; added tags and fusions are not shown.
UniProt P54132: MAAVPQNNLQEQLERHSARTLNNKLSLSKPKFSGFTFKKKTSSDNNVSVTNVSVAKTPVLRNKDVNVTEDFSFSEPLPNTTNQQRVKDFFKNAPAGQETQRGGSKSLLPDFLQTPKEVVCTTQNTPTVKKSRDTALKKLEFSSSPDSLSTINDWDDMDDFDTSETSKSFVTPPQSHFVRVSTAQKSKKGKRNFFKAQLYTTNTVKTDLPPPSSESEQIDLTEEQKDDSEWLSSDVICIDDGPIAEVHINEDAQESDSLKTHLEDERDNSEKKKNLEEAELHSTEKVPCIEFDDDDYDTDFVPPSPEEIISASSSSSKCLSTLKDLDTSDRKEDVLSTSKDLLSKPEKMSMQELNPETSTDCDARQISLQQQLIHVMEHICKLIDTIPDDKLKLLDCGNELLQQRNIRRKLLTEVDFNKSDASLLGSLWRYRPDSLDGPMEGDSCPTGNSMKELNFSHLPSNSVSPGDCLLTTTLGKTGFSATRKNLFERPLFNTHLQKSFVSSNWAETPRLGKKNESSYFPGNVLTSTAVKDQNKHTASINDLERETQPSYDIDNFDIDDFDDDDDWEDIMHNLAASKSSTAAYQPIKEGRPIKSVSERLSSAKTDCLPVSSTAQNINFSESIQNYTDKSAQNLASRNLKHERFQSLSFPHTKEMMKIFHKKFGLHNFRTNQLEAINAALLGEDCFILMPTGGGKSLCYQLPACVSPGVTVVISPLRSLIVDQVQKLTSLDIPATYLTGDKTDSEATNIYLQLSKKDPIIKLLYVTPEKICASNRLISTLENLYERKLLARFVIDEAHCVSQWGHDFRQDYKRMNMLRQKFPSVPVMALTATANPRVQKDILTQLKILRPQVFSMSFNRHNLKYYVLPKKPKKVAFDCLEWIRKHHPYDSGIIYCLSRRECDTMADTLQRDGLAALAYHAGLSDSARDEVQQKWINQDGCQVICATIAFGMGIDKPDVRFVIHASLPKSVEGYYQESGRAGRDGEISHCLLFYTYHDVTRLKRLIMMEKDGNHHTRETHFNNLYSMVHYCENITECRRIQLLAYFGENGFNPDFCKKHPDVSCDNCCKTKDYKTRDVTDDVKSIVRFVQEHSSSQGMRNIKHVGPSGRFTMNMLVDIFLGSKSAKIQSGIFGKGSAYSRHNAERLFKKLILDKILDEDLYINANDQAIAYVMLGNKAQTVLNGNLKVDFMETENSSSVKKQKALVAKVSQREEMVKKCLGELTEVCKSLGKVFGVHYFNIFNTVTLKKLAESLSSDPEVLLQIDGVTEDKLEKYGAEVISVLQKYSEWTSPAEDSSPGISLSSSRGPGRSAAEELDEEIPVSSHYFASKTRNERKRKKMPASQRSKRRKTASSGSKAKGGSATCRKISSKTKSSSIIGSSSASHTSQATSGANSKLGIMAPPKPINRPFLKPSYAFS

What was measured:
[1] = target: T1, HA-tagged USP37 (ubiquitin specific peptidase 37), wild type (UniProt Q86T82); test: co-IP; HEK293T cells expressing HA-tagged USP37 or other HA-tagged deubiquitinases (transfected, Figure 1A; stably expressing, Figure 4D); 10 uM MG132 for 4 h; in Figure 4D with or without cisplatin (3 umol/l, 16 h); IP with HA antibody-conjugated beads, blot for endogenous BLM
T1 sequence: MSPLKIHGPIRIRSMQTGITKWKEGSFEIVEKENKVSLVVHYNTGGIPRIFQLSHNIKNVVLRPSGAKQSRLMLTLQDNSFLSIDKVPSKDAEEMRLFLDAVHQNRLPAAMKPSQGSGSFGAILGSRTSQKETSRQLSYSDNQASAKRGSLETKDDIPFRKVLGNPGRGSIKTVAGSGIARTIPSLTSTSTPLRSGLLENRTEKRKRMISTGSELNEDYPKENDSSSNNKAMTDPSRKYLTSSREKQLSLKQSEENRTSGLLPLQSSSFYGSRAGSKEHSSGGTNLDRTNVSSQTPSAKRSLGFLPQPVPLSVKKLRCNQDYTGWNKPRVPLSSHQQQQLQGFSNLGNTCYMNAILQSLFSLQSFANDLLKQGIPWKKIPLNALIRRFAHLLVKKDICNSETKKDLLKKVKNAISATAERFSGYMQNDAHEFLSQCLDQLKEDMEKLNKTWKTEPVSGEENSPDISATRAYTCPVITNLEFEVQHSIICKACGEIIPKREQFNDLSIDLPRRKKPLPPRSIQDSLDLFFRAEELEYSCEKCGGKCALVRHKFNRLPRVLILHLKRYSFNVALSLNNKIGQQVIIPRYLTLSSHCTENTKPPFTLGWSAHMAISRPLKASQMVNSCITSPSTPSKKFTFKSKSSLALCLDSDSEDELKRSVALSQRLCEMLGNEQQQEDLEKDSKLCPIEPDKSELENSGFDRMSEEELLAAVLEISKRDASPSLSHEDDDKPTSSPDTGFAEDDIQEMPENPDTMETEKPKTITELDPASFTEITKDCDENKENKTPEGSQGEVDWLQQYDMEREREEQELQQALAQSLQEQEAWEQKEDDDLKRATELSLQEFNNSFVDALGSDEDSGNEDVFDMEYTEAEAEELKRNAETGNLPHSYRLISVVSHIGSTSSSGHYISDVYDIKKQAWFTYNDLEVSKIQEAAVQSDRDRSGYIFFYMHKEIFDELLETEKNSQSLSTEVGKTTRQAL

[2] = target: T2, USP37 S114A (phosphorylation-resistant mutant) (UniProt Q86T82); test: co-IP; HEK293T cells transfected with the indicated plasmids (USP37 WT or S114A); untreated or cisplatin (3 umol/l, 16 h) and MG132 for 4 h; co-IP and western blots
T2 sequence: T1 sequence with S114A

[3] = target: T3, USP37 wild type, as transfected in the co-IP of Figure 5E (UniProt Q86T82); test: as above
T3 sequence: T1 sequence

binding [1]: binds
binding [2]: binds
binding [3]: binds
Substance: BLM (RecQ helicase BLM), endogenous (from UniProt P54132 1-1417)
